For at least one compound, name, drawing or mass did not settle the structure.
System: Fabry disease vascular endothelial cells
Assay: Tube formation experiment with ROCK inhibitors
Format: cell-based, human
Conditions: 5 µM
Experimental: [Table 1] ROCK inhibitors used in the first experiment
Second experiment: To confirm whether decreased tube formation in vascular endothelial cells derived from Fabry disease-induced pluripotent stem cells was rescued by treatment with 7 types of ROCK inhibitors (netarsudil, ripasudil, sovesudil, AT13148, AR13503, VX-210, and […]), a tube formation experiment was conducted (Table 2). [Table 2] Types of ROCK inhibitors used in the second experiment
Matrigel was applied to a 96-well plate which was then stored in a 5% CO2 incubator a 37°C for one day. The next day, each ROCK inhibitor was added to each well at various concentrations (5 µM, 1 µM, 0.5 µM, 0.1 µM, 0.05 µM, and 0.01 µM) together with […] VEGF in EGM-2 media.
10,000 vascular endothelial cells per well were applied onto the solidified Matrigel, and after one day, each well was photographed under a microscope. Then, the total tube length was analyzed using Image J to compare the increase and decrease in tube formation.

CC(C)NC(=O)COc1cccc(-c2nc(Nc3ccc4[nH]ncc4c3)c3ccccc3n2)c1 [Belumosudil]
tube formation ability of Fabry disease vascular endothelial cells: effective in improving the impaired tube formation ability
